Reference: patent US6399349B1, “Human aminopeptidase P gene” (priority 1997, dated 2002)
No constants are given. Whether binding was seen depends on the method and setting. Some entries that bind do so weakly or less than the wild type.

Target: T1, rat lung aminopeptidase P (rat) (UniProt Q99MA2)
T1 sequence (looked up): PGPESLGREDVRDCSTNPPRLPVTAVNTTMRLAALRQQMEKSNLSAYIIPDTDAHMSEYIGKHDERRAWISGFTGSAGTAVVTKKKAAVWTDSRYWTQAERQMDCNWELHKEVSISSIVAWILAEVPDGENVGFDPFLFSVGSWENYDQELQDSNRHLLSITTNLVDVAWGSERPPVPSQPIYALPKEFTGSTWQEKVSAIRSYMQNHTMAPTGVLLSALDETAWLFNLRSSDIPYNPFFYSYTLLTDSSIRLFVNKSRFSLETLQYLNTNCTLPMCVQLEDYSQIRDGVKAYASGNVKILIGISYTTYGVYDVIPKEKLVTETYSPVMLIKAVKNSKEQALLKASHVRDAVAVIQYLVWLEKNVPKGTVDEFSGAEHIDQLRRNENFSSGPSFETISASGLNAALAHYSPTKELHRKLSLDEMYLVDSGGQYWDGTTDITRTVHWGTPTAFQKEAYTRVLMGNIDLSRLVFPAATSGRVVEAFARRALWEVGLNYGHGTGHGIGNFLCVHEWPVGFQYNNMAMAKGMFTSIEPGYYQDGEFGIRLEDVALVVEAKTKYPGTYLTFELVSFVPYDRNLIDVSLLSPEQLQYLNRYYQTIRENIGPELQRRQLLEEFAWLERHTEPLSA
Test: inferred from inhibition of APPBz-^3H hydrolysis

Question: PPGFSPFR [des-Arg^1-bradykinin] was tested. Which binding did it give?
Answer: Its binding is “binds”.
